Test results as given in paper PMC7693276.
No constants are given. Whether binding was seen depends on the method and setting. Binding calls can cover weak binding; strength is not graded here.

Molecular target: T1, central subunit NDUFS2 of Y. lipolytica complex I (Y. lipolytica) (UniProt Q9UUU1)
T1 sequence: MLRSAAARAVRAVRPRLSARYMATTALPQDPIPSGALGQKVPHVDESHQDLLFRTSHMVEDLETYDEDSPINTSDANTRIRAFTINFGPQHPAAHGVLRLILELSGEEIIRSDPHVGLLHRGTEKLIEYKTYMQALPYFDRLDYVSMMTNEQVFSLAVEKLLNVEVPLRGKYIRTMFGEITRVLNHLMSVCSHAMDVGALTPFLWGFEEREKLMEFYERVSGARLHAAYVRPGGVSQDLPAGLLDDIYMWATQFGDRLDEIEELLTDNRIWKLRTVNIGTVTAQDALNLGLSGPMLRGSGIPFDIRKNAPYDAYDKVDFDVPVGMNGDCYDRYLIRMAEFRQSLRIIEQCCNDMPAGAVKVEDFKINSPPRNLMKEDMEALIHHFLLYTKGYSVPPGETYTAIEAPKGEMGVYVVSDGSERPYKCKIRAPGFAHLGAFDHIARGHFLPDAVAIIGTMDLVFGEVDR
Assay: cryo-EM structure; complex I F89A^LYRM6 mutant purified in LMNG, polished on MonoQ, applied at 1.5 mg/ml; final map at 2.96 Å; model built on the WT structure PDB 6RFR as template; both purified

Substance: accessory subunit LYRM6 (NDUFA6) mutant F89A of Y. lipolytica complex I
- binding: binds
